# Results reported in patent US7772177B2 (Aegera Therapeutics, Inc., priority 2005, dated 2010).
# Experiment: general procedure: Fmoc solid-phase peptide synthesis; 2-chlorotrityl chloride resin; DIC (coupling to 4'-(aminomethyl)fluorescein)
# Conditions: whole synthesis
substance,measurement,value
Fmoc-Ala-Val-Pro-Phe-Tyr(t-Bu)-Leu-Pro-Gly(t-Bu)-Gly-OH,final HPLC purity,>95% pure
